Assay [1] has as its target EGFP- and MycFlag-tagged BRD2, wild type (mouse) (UniProt Q7JJ13). The assay is described as follows: co-IP; EGFP- and MycFlag-tagged BRD2 constructs expressed in 293T cells, immunoprecipitated with GFP-Trap agarose beads; Western blot for BRD2 and NIPBL.
Assay [2] deals with BRD2 (mouse (endogenous in CH12F3-2A)) (UniProt Q7JJ13). The assay is described as follows: co-IP; nuclear extracts from CIT-activated CH12F3-2A cells immunoprecipitated with BRD2 or BRD4 antibodies or control rabbit IgG (Dynabeads Protein G); Western blot of the precipitated proteins.

Amino acid sequences for entries named in this document (tags omitted).
UniProt Q7JJ13: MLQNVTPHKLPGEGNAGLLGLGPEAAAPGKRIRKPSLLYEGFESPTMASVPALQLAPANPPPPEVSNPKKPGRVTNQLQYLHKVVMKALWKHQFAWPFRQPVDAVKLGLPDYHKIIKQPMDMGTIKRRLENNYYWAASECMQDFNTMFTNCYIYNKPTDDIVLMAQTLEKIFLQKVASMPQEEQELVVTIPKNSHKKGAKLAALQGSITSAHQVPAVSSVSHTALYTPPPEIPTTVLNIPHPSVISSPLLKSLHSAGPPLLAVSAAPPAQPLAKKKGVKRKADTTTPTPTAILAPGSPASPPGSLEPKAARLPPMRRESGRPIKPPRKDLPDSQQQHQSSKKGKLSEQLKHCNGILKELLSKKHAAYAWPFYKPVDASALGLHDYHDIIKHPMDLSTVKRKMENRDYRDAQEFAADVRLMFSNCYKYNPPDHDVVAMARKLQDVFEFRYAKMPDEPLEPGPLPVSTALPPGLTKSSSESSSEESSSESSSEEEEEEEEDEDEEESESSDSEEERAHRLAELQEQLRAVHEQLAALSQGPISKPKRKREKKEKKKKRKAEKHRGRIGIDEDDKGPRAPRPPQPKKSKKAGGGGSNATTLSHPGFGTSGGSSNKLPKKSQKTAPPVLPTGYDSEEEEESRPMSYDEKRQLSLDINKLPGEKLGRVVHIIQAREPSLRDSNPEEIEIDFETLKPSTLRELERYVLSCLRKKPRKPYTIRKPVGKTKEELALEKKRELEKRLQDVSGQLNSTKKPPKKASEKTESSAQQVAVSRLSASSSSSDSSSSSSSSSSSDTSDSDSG
UniProt Q6KC79: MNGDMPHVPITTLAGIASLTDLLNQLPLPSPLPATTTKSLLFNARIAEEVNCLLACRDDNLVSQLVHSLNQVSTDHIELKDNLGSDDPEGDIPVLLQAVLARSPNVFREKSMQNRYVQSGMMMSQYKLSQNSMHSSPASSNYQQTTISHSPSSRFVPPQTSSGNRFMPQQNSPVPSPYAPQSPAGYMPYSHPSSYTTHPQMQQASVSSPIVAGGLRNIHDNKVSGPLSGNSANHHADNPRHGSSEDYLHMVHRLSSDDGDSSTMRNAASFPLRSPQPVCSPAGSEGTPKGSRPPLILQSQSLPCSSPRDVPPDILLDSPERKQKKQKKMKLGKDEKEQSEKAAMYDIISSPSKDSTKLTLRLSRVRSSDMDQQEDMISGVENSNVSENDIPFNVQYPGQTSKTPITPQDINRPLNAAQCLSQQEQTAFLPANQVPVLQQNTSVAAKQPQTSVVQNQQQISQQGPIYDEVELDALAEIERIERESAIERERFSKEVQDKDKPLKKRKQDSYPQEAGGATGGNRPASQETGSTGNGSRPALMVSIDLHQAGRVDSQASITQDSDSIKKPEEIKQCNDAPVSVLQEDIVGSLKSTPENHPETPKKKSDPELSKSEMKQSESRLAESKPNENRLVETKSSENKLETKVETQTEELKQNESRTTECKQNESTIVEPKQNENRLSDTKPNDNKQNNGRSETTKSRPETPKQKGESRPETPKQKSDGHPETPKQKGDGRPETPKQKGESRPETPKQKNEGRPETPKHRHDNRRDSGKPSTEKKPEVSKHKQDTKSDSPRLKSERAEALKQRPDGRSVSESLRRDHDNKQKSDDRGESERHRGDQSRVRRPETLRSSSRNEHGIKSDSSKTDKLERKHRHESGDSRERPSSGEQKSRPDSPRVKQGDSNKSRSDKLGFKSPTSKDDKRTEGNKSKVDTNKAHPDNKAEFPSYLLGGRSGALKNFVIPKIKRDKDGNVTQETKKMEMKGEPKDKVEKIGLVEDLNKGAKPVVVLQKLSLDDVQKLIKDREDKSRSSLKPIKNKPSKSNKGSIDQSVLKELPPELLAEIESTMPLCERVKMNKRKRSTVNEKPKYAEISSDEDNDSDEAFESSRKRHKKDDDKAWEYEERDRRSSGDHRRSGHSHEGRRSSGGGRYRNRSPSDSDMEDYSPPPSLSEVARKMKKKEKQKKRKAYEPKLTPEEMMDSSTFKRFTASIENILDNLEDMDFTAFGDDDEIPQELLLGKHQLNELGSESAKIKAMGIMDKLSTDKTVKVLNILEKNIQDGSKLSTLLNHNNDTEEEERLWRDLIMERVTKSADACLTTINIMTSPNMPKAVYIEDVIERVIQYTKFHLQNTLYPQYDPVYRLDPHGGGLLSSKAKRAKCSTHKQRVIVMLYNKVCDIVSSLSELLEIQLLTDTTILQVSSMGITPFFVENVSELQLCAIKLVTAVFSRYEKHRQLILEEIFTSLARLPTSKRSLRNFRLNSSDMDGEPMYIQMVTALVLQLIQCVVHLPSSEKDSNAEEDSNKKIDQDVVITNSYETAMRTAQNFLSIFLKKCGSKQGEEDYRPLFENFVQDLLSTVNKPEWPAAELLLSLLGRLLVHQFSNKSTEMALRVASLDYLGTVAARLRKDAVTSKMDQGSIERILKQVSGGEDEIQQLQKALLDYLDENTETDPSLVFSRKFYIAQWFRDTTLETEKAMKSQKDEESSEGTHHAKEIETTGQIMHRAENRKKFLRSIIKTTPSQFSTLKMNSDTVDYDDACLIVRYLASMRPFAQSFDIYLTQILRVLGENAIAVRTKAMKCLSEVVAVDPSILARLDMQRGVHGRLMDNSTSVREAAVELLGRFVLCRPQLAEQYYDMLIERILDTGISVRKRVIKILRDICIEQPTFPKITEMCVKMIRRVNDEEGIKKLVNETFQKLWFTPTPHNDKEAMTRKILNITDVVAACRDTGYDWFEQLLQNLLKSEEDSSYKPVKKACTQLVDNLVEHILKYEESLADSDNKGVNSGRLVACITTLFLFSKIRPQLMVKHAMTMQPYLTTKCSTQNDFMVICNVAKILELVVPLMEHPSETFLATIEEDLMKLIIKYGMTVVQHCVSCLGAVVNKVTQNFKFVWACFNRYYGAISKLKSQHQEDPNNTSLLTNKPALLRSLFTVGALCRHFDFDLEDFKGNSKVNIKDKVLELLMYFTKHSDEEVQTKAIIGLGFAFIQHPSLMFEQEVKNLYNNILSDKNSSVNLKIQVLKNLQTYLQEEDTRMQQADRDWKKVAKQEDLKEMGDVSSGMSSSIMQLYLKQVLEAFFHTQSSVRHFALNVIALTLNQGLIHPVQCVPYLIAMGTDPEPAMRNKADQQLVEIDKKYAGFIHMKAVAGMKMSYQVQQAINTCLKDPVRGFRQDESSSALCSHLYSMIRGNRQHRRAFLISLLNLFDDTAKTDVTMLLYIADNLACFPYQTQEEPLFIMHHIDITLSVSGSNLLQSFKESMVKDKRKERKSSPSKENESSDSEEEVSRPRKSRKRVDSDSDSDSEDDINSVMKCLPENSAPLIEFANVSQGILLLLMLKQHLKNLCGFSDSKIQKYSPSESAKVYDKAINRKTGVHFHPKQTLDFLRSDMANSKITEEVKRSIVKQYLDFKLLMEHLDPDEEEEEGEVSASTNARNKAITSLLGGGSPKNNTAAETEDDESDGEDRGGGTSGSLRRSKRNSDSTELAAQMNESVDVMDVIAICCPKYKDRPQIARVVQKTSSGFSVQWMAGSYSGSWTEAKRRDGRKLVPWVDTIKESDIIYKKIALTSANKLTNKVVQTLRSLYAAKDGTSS
UniProt Q6KCD5: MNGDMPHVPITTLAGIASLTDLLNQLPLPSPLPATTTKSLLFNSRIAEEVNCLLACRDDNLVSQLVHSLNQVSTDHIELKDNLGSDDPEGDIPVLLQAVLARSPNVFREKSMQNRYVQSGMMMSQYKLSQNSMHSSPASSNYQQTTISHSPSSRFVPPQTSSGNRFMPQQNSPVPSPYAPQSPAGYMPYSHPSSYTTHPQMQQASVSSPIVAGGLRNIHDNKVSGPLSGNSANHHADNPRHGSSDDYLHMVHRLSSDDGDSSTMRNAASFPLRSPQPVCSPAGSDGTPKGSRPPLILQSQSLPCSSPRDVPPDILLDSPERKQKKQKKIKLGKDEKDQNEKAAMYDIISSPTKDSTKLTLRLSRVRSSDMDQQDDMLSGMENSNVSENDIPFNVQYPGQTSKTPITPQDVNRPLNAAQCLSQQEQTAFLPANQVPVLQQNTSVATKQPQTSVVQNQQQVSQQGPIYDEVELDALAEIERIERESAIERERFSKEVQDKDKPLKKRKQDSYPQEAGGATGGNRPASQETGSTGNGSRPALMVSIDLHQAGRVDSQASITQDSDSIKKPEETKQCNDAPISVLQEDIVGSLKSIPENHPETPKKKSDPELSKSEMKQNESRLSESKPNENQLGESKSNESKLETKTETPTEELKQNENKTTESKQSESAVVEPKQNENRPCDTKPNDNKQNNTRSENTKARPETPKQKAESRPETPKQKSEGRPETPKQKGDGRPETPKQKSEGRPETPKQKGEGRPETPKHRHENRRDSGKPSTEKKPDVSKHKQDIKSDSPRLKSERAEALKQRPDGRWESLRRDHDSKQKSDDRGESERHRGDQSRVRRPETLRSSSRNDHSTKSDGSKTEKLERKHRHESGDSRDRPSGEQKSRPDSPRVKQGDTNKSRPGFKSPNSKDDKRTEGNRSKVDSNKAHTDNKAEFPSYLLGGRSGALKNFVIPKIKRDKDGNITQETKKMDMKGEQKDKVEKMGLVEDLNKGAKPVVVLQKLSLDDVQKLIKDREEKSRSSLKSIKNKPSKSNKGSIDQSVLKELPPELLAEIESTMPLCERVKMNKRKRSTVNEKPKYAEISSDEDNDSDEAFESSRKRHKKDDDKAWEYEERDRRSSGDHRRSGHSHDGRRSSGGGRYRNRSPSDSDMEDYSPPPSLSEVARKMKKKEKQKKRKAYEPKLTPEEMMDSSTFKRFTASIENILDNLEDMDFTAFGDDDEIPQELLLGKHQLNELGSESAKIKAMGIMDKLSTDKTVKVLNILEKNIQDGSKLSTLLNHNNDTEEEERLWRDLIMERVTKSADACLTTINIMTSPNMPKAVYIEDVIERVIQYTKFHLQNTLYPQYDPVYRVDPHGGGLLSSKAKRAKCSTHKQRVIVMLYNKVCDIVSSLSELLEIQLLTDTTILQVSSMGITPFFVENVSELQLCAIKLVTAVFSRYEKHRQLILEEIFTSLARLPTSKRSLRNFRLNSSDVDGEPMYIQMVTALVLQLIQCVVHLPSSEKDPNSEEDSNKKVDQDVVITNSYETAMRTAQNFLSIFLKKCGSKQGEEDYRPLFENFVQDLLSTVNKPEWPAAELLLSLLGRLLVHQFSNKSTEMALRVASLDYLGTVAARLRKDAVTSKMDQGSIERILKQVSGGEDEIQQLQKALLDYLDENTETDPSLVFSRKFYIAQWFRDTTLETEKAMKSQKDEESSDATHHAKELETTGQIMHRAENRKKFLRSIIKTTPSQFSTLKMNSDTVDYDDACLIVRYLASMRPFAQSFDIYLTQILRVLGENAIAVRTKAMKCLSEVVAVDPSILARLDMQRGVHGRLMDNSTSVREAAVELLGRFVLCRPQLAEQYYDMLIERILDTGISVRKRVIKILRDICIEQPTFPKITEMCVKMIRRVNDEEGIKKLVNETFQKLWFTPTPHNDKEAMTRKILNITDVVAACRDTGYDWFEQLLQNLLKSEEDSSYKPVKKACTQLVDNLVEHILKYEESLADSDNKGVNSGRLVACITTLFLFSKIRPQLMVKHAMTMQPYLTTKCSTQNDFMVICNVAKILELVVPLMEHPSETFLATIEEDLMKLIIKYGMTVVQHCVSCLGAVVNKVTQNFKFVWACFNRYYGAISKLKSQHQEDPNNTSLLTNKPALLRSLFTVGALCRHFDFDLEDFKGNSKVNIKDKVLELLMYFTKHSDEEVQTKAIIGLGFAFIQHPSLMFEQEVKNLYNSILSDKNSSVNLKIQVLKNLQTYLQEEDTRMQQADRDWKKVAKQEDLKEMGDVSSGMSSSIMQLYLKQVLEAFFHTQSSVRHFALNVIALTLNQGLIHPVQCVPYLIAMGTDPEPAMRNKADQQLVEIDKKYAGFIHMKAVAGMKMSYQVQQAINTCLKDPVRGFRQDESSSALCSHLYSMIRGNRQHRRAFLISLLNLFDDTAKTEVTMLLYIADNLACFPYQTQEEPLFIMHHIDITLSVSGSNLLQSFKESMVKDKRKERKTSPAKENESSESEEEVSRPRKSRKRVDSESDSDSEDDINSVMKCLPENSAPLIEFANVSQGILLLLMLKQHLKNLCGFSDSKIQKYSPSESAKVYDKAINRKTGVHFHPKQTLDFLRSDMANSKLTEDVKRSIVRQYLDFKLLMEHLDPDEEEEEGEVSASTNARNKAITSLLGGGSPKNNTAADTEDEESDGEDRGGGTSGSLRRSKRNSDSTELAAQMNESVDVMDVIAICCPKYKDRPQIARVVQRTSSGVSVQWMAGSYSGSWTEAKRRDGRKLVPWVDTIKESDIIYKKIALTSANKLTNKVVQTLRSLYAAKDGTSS

This note sets out measurements from article PMC11077081.

These are yes or no findings as the source states them, for the method shown. Binding seen in cells or lysates may run through a third protein. Some entries that bind do so weakly or less than the wild type.

For the substance “NIPBL (endogenous in 293T) (from UniProt Q6KC79 1-2804)”, the binding entry in assay [1] is “binds”.

Consider “NIPBL (mouse, endogenous in CH12F3-2A) (from UniProt Q6KCD5 1-2798)”, for which the binding entry in assay [2] is given as “binds”.
